# Reference: US20250228978A1, “ENGINEERING SUICIDE GENE APPROACHES TO IMPROVE CHEMOTHERAPEUTIC RESPONSE IN CANCER” (University of Virginia Patent Foundation, priority 0001, published 2025)
# At least one structure is not confirmed: it was looked up by name or label, or the drawing left a doubt.
# Legend:
# CK2α and CK2α′ = assay: CK2 catalytic subunit expression after TMZ or carboplatin (immunofluorescence); assay type: cell-based; settings: U87 MG cells, drug treated
# Procedure: FIGS. 36A and 36B. Effect of TMZ or carboplatin on CK2 expression. U87 MG cells were subjected to immunofluorescence microscopy using antibodies against the two CK2 catalytic (FIG. 36A: CK2α, FIG. 36B: CK2α′) subunits. Image is representative of n=3 replicates and data are plotted as mean±sd. A Student's t test was applied to determine the significance of observed differences; *, **, and *** indicate p=0.05, 0.01, or 0.001, respectively.
# To determine if a CK2-regulated SGT would cooperate with chemotherapies used to treat glioblastoma, we measured the response of AKT-gen2 transductants to a combination of GCV with temozolomide (TMZ) or carboplatin. We hypothesized that a synergistic effect could occurs because CK2 contributes to DNA damage response and responds to stress signals; it seemed sensible that this could drive higher CK2 activity26,27,29.
# [1] = tested on: G816 cells (glioma-initiating cell line); assay: p38-regulated HSVtk constructs: FLAG abundance; assay type: cell-based, human
# Procedure: Referring to FIG. 18B, four designs tested included peptide sequences from the MAPK targets CHOP, MEF2A, p21, and FRA1. […] Sequences shown in blue were taken from proteins primarily phosphorylated by p38, while domains in gray were taken from the original FRA 1-PEST PEST design. The ERK recognition sequence was removed from these designs to improve specificity toward p38. G816 cells (glioma-initiating cell line) expressing each of the four HSVtk constructs were grown in 21% oxygen or 1% oxygen (hypoxia), with or without SB 203580 (p38 inhibitor, 10 μM for two days. Hypoxic induction of p38 phosphorylation promoted protein stabilization, which was abrogated with the addition of a p38 inhibitor to varying degrees for each construct.
# Referring to FIG. 22A, G816-FLAG-NLS-HSVtk-MEF2A cells were treated with DMSO (vehicle), GCV (50 μM), or TMZ (500 μM) for up to 48 hours.
# Referring to FIG. 22C, G816-FLAG-NLS-HSVtk-MEF2A cells were treated with DMSO (vehicle), SB 203580 (p38 inhibitor (p38i), 10 μM), or trametinib (MEK inhibitor (MEKi), 50 nM), in addition to TNFα, GCV, or TMZ for two days.
smiles,measurement,setting,value
"Cn1nnc2c(C(N)=O)ncn2c1=O [TMZ, temozolomide]",CK2α and CK2α′ expression,CK2α and CK2α′,increased
same,FLAG abundance of FLAG-NLS-HSVtk-MEF2A relative to vehicle,"[1]; GCV 50 μM or TMZ 500 μM, 48 hours",increased FLAG abundance
same,FLAG expression of FLAG-NLS-HSVtk-MEF2A,"[1]; two days, SB 203580 10 μM, trametinib 50 nM",increased
